{"source": "PubChem BioAssay AID1259254 – NCATS, 2017", "purpose": "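Gene knock-downs that lead to re-replication, shown by excess G2 DNA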 (primary screen)", "system": "human HCT116 colorectal cancer cells", "reagents": "single siRNA against human genes", "duration": "3 days", "detection": "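Imaged Hoechst DNA stain sorts each cell into a cycle phase by DNA amount; per plate, G2 fraction set to 0% for non-targeting and 100% for GMNN siRNA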", "scale": "G2 robust z-score: higher = more G2 cells, more excess DNA replication", "active means": "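An siRNA counts as active if its G2 robust z-score lies at least 5 MADs above the screen median; here such calls match roughly 38% of GMNN control or more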", "note": "This is a random part of about 59,000 reagents. In the full data, about 1,550 (2.6%) were called active. 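G2 share is only a proxy for re-replication; each gene was hit by three separate siRNAs, and active genes were retested.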 Entries without a mark were called inactive. Reagents against one gene are numbered here. Further read-outs or replicates are left out here. Not stated in the record: the amount of reagent."}
{"target": "KBTBD4", "reagent": 1, "G2 robust z-score": 0.206}
{"target": "KBTBD4", "reagent": 2, "G2 robust z-score": -0.442}
{"target": "KBTBD4", "reagent": 3, "G2 robust z-score": -0.8}
{"target": "DOCK8-AS1", "reagent": 1, "G2 robust z-score": 1.44}
{"target": "DOCK8-AS1", "reagent": 2, "G2 robust z-score": 1.33}
{"target": "DOCK8-AS1", "reagent": 3, "G2 robust z-score": 0.43}

Entries above whose gene name begins with K or k:
{"target": "KBTBD4", "reagent": 1, "G2 robust z-score": 0.206}
{"target": "KBTBD4", "reagent": 2, "G2 robust z-score": -0.442}
{"target": "KBTBD4", "reagent": 3, "G2 robust z-score": -0.8}

Further entries follow:
{"target": "PMM1", "reagent": 1, "G2 robust z-score": -0.919}
{"target": "PMM1", "reagent": 2, "G2 robust z-score": -0.272}
{"target": "PMM1", "reagent": 3, "G2 robust z-score": "5.63 (active)"}
{"target": "TAFA4", "reagent": 1, "G2 robust z-score": -0.655}
{"target": "TAFA4", "reagent": 2, "G2 robust z-score": "5.48 (active)"}
{"target": "TAFA4", "reagent": 3, "G2 robust z-score": -0.488}
